Binding data for one molecule are collected here from patent publication US20080241162A1.

The chains behind the UniProt entries cited, without tags or fusion partners. Residues count along the entry.
UniProt P27958, residues 388-664: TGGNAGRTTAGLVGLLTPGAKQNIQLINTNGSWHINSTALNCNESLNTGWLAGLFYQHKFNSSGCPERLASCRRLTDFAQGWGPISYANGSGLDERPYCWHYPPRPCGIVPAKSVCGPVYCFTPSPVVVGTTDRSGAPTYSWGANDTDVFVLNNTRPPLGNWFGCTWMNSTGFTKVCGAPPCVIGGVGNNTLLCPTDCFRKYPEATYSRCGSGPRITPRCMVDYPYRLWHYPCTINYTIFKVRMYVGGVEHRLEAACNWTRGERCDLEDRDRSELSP

Results are given in words; binding and its absence hold for the method and conditions named. Some binding calls cover weakened binding; strength is not graded here.

For this assay, the target named is purified recombinant HCV/E2 of 1a genotype (strain H) expressed in CHO cells (Hepatitis C virus genotype 1a (strain H)) (UniProt P27958). Put plainly: Fab inhibition ELISA (FIT) on HCV/E2, probe e8-FLAG. (In general: In an ELISA, binding on a coated surface is turned into a signal by an enzyme label.)

B1: e8-IgG1 (full-size human monoclonal antibody) (antibody, V domains shown)
VH: LLEQSGAEVKMPGATVKVSCQSSRYTFTSYGIGWVRQAPGQGLEWMGWISGYTHETKYAQSFQGRVTMTAETSTGTAYMELRSLRSDDTATYYCARDGGGRVVVPPTHLRAFDVWGQGT
VL: MAELTQSPGTLSLSPGERATLSCRASHRVNNNFLAWYQQKPGQAPRLLISGASTRATGIPDRFSGSGSGTDFTLTISRLEPDDFAVYYCQQYGDSPLYSFGQGT
Regarding B1, the binding entry is recorded as “binds”.
